# Results are given in words; binding and its absence hold for the method and conditions named. Binding seen in cells or lysates may run through a third protein. A result given as binding can be weak or reduced; the word gives no strength. Sequences can lack the tags named with a protein.
# Biological target: GFP-tagged JMJD6-Ex5 (human)
# Assay: co-IP; HEK 293T lysates 48 h after co-transfection; anti-GFP beads (ChromoTek); input, flow-through and bound fractions blotted with anti-GFP, anti-HA or anti-Flag
binder,measurement,value
"Flag-tagged FCP1 (protein, UniProt Q9Y5B0 1-961) MEVPAAGRVPAEGAPTAAVAEVRCPGPAPLRLLEWRVAAGAAVRIGSVLAVFEAAASAQSSGASQSRVASGGCVRPARPERRLRSERAGVVRELCAQPGQVVAPGAVLVRLEGCSHPVVMKGLCAECGQDLTQLQSKNGKQQVPLSTATVSMVHSVPELMVSSEQAEQLGREDQQRLHRNRKLVLMVDLDQTLIHTTEQHCQQMSNKGIFHFQLGRGEPMLHTRLRPHCKDFLEKIAKLYELHVFTFGSRLYAHTIAGFLDPEKKLFSHRILSRDECIDPFSKTGNLRNLFPCGDSMVCIIDDREDVWKFAPNLITVKKYVYFQGTGDMNAPPGSRESQTRKKVNHSRGTEVSEPSPPVRDPEGVTQAPGVEPSNGLEKPARELNGSEAATPRDSPRPGKPDERDIWPPAQAPTSSQELAGAPEPQGSCAQGGRVAPGQRPAQGATGTDLDFDLSSDSESSSESEGTKSSSSASDGESEGKRGRQKPKAAPEGAGALAQGSSLEPGRPAAPSLPGEAEPGAHAPDKEPELGGQEEGERDGLCGLGNGCADRKEAETESQNSELSGVTAGESLDQSMEEEEEEDTDEDDHLIYLEEILVRVHTDYYAKYDRYLNKEIEEAPDIRKIVPELKSKVLADVAIIFSGLHPTNFPIEKTREHYHATALGAKILTRLVLSPDAPDRATHLIAARAGTEKVLQAQECGHLHVVNPDWLWSCLERWDKVEEQLFPLRDDHTKAQRENSPAAFPDREGVPPTALFHPMPVLPKAQPGPEVRIYDSNTGKLIRTGARGPPAPSSSLPIRQEPSSFRAVPPPQPQMFGEELPDAQDGEQPGPSRRKRQPSMSETMPLYTLCKEDLESMDKEVDDILGEGSDDSDSEKRRPEEQEEEPQPRKPGTRRERTLGAPASSERSAAGGRGPRGHKRKLNEEDAASESSRESSNEDEGSSSEADEMAKALEAELNDLM",binding,binds
